# Reference: PubChem BioAssay AID485314 (National Center for Advancing Translational Sciences (NCATS), 2010)
# Out of some 340,000 compounds screened, about 4,500 (1.3%) were called active. Inconclusive results, whose numbers are uncertain, are shown with a selection of clear calls. The call rests on the fitted dose curve; in most records, active means well fitted inhibition curve with a large enough effect; inconclusive means small, poorly fitted or top-dose-only effect, or another doubt; inactive means no such curve, though single readings can be large or run the other way. Where the call is inconclusive, the potency comes from a doubtful curve fit.
# Target: DNA polymerase beta (Homo sapiens) (UniProt P06746)
# Assay: qHTS Assay for Inhibitors of DNA Polymerase Beta
# Details: Pol beta primer extension/strand displacement, fluorescence kinetic; activity change, negative = inhibition: at 114 µM (top of the series)
# Method in brief: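 Enzyme-only controls used 10 nM Pol beta; buffer lacking enzyme served as negative control. Compound preincubated 15 min, then 50 nM substrate added; 0 and 10 min reads at room temperature.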
# On the % scale 0 is the no-effect control and ±100 the full control effect; potency means the concentration at half of the fitted maximal effect.
SMILES,Potency,"activity change, negative = inhibition"
O=C1c2ccccc2C(=O)N1CC#CCN1CCN(C(c2ccccc2)c2ccccc2)CC1,"inconclusive: 0.316 µM [inhibitor, full curve, poor fit]",–
COC(=O)c1cc(C(=O)OC)cc(-n2c(C)cc(C=O)c2C)c1,inactive,–
Cc1ccc2nc(NC(=O)c3cc(-c4ccco4)nc4ccccc34)sc2c1,inactive,–
O=C(CN(Cc1cccs1)C(=O)CN1C(=O)COc2ccccc21)NCc1ccco1,"inconclusive: 79.4 µM [inhibitor, partial curve]",–
CC1(C)CC(=O)c2cc(C(=O)Nc3ccc(Br)cc3)c(=O)n(-c3ccc(Cl)cc3)c2C1,"inconclusive: 0.112 µM [inhibitor, full curve]",–
N#CC(C(=O)Nc1ccc(Cl)cc1)=C1Nc2ccccc2N1,"inconclusive: 79.4 µM [inhibitor, partial curve]",–
O=C(Cc1cccs1)Nc1nnc(Cc2ccc(F)cc2)s1,active: 39.8 µM,–
O=C(NCCCCc1ccccc1)c1ccccc1Cl,"inconclusive: 63.1 µM [inhibitor, single point]",–
O=C(CSc1nc(O)c(Cc2ccccc2)c(=O)[nH]1)N1CCOCC1,–,inconclusive: -68.9% [inhibitor]
O=C(c1ccc(COc2ccccc2Br)o1)N1CCCCCC1,"inconclusive: 22.4 µM [inhibitor, single point]",–
CCOC(=O)N1CCN(C(=O)Nc2ccc(NC(=O)N3CCN(C(=O)OCC)CC3)cc2)CC1,"inconclusive: 89.1 µM [inhibitor, single point]",–
O=C1CC(N2CCN(S(=O)(=O)c3ccccc3)CC2)C(=O)N1c1ccccc1 (stereo not drawn),"inconclusive: 3.16 µM [inhibitor, single point]",–
Cc1c(C)c2ccc(OCC(=O)NC(Cc3c[nH]c4ccc(O)cc34)C(=O)O)c(C)c2oc1=O (stereo not drawn),inactive,–
CC(=O)Nc1ccc(NS(=O)(=O)c2ccc3c(c2)CCCN3C(C)=O)cc1,inactive,–
O=C1NC(=O)C(c2ccccc2[N+](=O)[O-])=C1Nc1ccc(O)c(Cl)c1,active: 11.2 µM,–
CS(=O)(=O)N1N=C(c2ccccc2)CC1c1ccc2c(c1)OCO2 (stereo not drawn),"inconclusive: 31.6 µM [inhibitor, single point]",–
COc1cc([N+](=O)[O-])cc(/C=C2/SC(=S)N(Cc3ccccc3)C2=O)c1O,active: 17.8 µM,–
Cc1ccc(-c2nnc(SCC(=O)N3CCCc4ccccc43)n2N)cc1,"inconclusive: 39.8 µM [inhibitor, single point]",–
Cc1cc(NC(=O)CCCn2ccc([N+](=O)[O-])n2)n(Cc2ccc(F)cc2)n1,"inconclusive: 89.1 µM [inhibitor, single point]",–
N#Cc1c(NC(=O)C2CC(c3c(F)cccc3Cl)=NO2)sc2c1CCC2 (stereo not drawn),"inconclusive: 70.8 µM [inhibitor, single point]",–
C=CC(=O)NCC1OCCc2ccccc21 (stereo not drawn),inactive,–
CCOC(=O)c1ccc(N2C=C(C(=O)OC)C(c3ccc(OC)c(O)c3)C(C(=O)OC)=C2)cc1,inactive,–
Cc1ccc(-c2noc(-c3cccnc3NCc3ccc(Cl)cc3)n2)cc1,"inconclusive: 79.4 µM [inhibitor, single point]",–
Cc1csc2nc(COc3ccc(NC(=O)COc4ccc(F)cc4)cc3)cc(=O)n12,"inconclusive: 0.316 µM [inhibitor, full curve, poor fit]",–
COc1ccc(N2CCN(C(CNC(=O)c3ccc(C)cc3)c3ccc4c(c3)OCO4)CC2)cc1 (stereo not drawn),inactive,–

SMILES,Potency,"activity change, negative = inhibition"
COc1cc(-c2nc3ccccn3c2/N=C/c2cc(OC)c(O)cc2Cl)ccc1O,active: 25.1 µM,–
COc1ccc(NC2CCCN(C(=O)c3cccnc3SC)C2)cc1OC (stereo not drawn),inactive,–
CCOc1ccc(C2/C(=C(/O)c3ccc4c(c3)CC(C)O4)C(=O)C(=O)N2CCCn2ccnc2)cc1 (stereo not drawn),"inconclusive: 0.126 µM [inhibitor, full curve, poor fit]",–
CCn1c(SCC(=O)Nc2nccc(C)n2)nc2ccccc21,active: 79.4 µM,–
Oc1ccc(-c2csc(-c3ccccc3)n2)cc1O,active: 7.94 µM,–
COc1ccc2oc(C(=O)NC3CCCCC3)c(C)c2c1,inactive,–
COc1ccc(CCNC(=O)c2c(C)nc3ccccn23)cc1,inactive,–
CC(C)NC(=O)CC(=O)N/N=C/c1cccs1,active: 14.1 µM,–
COc1ccccc1-c1cn[nH]c(=S)n1,inactive,–
CCC(=O)N1CCc2cc(S(=O)(=O)N3CCN(c4cc(Cl)ccc4C)CC3)ccc21,–,inconclusive: -36.3% [inhibitor]
O=C1CC(c2ccccc2)Cc2[nH]c(=O)c(-c3nc(-c4ccc(F)cc4)cs3)cc21 (stereo not drawn),inactive,–
CCOC(=O)C1(Cc2ccccc2C(F)(F)F)CCN(Cc2ccon2)CC1,"inconclusive: 70.8 µM [inhibitor, single point]",–
O=C(CN1C(=O)COc2ccc(S(=O)(=O)N3CCCC3)cc21)N1CCN(c2ccccc2F)CC1,inactive,–
CCOc1ccc(C2c3c(oc4ccc(C)cc4c3=O)C(=O)N2c2nc(C)c(C)s2)cc1OC (stereo not drawn),inactive,–
C=CCn1c(SCC(=O)NCCOC)nc2scc(-c3ccco3)c2c1=O,"inconclusive: 50.1 µM [inhibitor, partial curve]",–
Cc1cc(C(=O)COc2ccccc2[N+](=O)[O-])c(C)n1C1CC1,inactive,–
Cc1ccc(-c2cc(C(=O)Oc3ccccc3)c3cccc(C)c3n2)cc1,"inconclusive: 15.8 µM [inhibitor, single point]",–
COc1ccc(CN(CCC(c2ccc(F)cc2)C2CCOC(C)(C)C2)C(=O)c2ccco2)cc1 (stereo not drawn),"inconclusive: 89.1 µM [inhibitor, single point]",–
COc1ccc2[nH]c3c(NCc4ccco4)ncnc3c2c1,"inconclusive: 39.8 µM [inhibitor, single point]",–
COC(=O)c1cc(S(=O)(=O)N2CCN(c3ccc(C)cc3C)CC2)cn1C,"inconclusive: 100 µM [inhibitor, single point]",–
COc1cc(/C=C2/CCCC(C(=O)C(F)(F)F)=C2O)ccc1O,inactive,–
COCCN1C(=O)c2oc3ccccc3c(=O)c2C1c1ccc(O)c(OC)c1 (stereo not drawn),"inconclusive: 89.1 µM [inhibitor, single point]",–
CCc1ccc(NC(=O)N(Cc2c[nH]c3ccccc23)C2CCCCCC2)cc1,inactive,–
CCOC(=O)C1=C(O)C(=O)N(c2ccc(S(N)(=O)=O)cc2)C1c1ccc([N+](=O)[O-])cc1 (stereo not drawn),"inconclusive: 0.316 µM [inhibitor, full curve]",–
Nn1c(SCc2ccccc2)nc2c(cnn2-c2ccccc2)c1=O,"inconclusive: 100 µM [inhibitor, single point]",–

# Given as tab-separated lines: part of the list above.
SMILES	Potency	activity change, negative = inhibition
CCOc1ccc(C2/C(=C(/O)c3ccc4c(c3)CC(C)O4)C(=O)C(=O)N2CCCn2ccnc2)cc1 (stereo not drawn)	inconclusive: 0.126 µM [inhibitor, full curve, poor fit]	–
CCn1c(SCC(=O)Nc2nccc(C)n2)nc2ccccc21	active: 79.4 µM	–
Oc1ccc(-c2csc(-c3ccccc3)n2)cc1O	active: 7.94 µM	–

# Additional entries follow:

SMILES,Potency,"activity change, negative = inhibition"
CCCCN1C(=O)C(O)(c2c(C)[nH]c3ccccc23)c2cc(Br)ccc21 (stereo not drawn),inactive,–
COC(=O)c1ccn(CC(=O)NC2CCCCC2)n1,active: 39.8 µM,–
CS(=O)(=O)N(Cc1ccccc1)c1ccc(C(=O)NCCSCc2ccco2)cc1,"inconclusive: 44.7 µM [inhibitor, partial curve, poor fit]",–
CCc1ccc(Nc2nnc(SC3CCOC3=O)s2)cc1 (stereo not drawn),"inconclusive: 39.8 µM [inhibitor, single point]",–
O=C1c2ccccc2C(=O)C12OC2c1cccc2ccccc12 (stereo not drawn),inactive,–
COc1ccc2c(c1OC)C(=O)OC2Nc1nc(-c2cc3cc([N+](=O)[O-])ccc3oc2=O)cs1 (stereo not drawn),"inconclusive: 15.8 µM [inhibitor, full curve, poor fit]",–
Cc1ccc(CSc2nnc(SCC(=O)N/N=C/c3ccccc3OCC(=O)O)s2)cc1,–,inconclusive: -42.8% [inhibitor]
COc1ccc(Cl)cc1NC(=O)CSc1nnc(C)n2c1cc1occc12,"inconclusive: 7.08 µM [inhibitor, full curve, poor fit]",–
COC(=O)c1ccc(COc2ccccc2/C=N/Nc2cccc(C(=O)O)c2)cc1,inactive,–
COc1ccccc1C(=O)Nc1ccnn1C1CCN(Cc2cnc(N(C)C)s2)CC1,active: 89.1 µM,–
N#C/C(=C\c1ccc(O)c(O)c1)C(=O)Nc1ccccc1,inactive,–
Cc1ccc(C)c(CSc2nnc(-c3cccnc3)o2)c1,"inconclusive: 5.62 µM [inhibitor, full curve, poor fit]",–
C/C(=N/Nc1ccc(C(=O)O)cc1)c1ccc(O)c(O)c1O,active: 22.4 µM,–
O=C(CCN1CCCO1)N1CCCC(N2CCN(c3cccc(C(F)(F)F)c3)CC2)C1 (stereo not drawn),"inconclusive: 89.1 µM [inhibitor, single point]",–
CCOC(=O)c1cccc(NC(=O)c2ccccc2C)c1,"inconclusive: 100 µM [inhibitor, single point]",–
CC(=O)c1cc(O)c2ccccc2c1O,"inconclusive: 31.6 µM [inhibitor, full curve]",–
COc1cccc(CNC(=O)CCCNC(=O)c2ccc(Cl)cc2)c1,–,inconclusive: -48.2% [inhibitor]
O=C(COc1ccc(S(=O)(=O)N2CCCC2)cc1Cl)NC1CCCC1,"inconclusive: 100 µM [inhibitor, single point]",–
COc1cc(OC)cc(C(=O)NCCC(=O)NCCc2ccc(OC)c(OC)c2)c1,"inconclusive: 89.1 µM [inhibitor, single point]",–
Cc1cc(C)c(Cn2c3ccccc3c3cnn(CC(=O)NC4CCC(C)CC4)c(=O)c32)c(C)c1 (stereo not drawn),inactive,–
O=C(Cn1c(=O)oc2cc(S(=O)(=O)N3CCCCC3)ccc21)Nc1cccc(Cl)c1,"inconclusive: 1.78 µM [inhibitor, full curve, poor fit]",–
CCc1ccc(CNC(=O)c2sc3ncccc3c2-n2c(C)ccc2C)cc1,inactive,–
CC/C(=C/c1sc2ccc(C)cc2[n+]1CCO)SC,"inconclusive: 1.12 µM [inhibitor, full curve, poor fit]",–
